Experimental data: patent US9114133B2, “Method of improving diastolic dysfunction” (U.S. DEPT. OF VETERANS AFFAIRS, priority 2006, dated 2015)
At least one compound was matched to its structure with a doubt left. Marks after values point to notes of the source that are not given here.

How the values were obtained:
[1] = test system: S-glutathionylation of cardiac MyBP-C; test: Sarcomeric protein glutathionylation by Western immunoblotting; type: in vivo, mouse; conditions: DOCA-salt mice, BH4 treatment vs DOCA-salt
[2] = test system: left ventricular papillary skinned fiber bundles; test: Simultaneous force and ATPase activity in detergent-extracted (skinned) cardiac fiber bundles; type: biochemical, mouse; conditions: for Maximum ATPase: 20° C.; for Maximum ATPase / Maximum Tension / pCa50 for Tension: sarcomere length 2.2 μm
[3] = test system: phosphorylation of myofilament proteins; test: Sarcomeric protein phosphorylation (Pro-Q Diamond stain and site-specific Western blotting); type: in vivo, mouse
[4] = test system: DOCA-salt mouse model (diastolic dysfunction) and sham mice; test: Transthoracic echocardiography, in vivo BH4 treatment in DOCA-salt mice
Protocol: Previously, I have shown that the DOCA-salt mouse model leads to mild hypertension, NOS uncoupling, myocardial oxidative stress, and diastolic dysfunction (Reference 10). A gradual and mild elevation in blood pressure was induced by unilateral nephrectomy, subcutaneous implantation of a controlled release deoxycorticosterone acetate (DOCA) pellet (0.7 mg/d; Innovative Research of America, Sarasota, Fla.), and substituting drinking water with 1.05% saline. Control animals underwent a sham operation, had placebo pellet implantation, and received water without salt.
Mice were divided into two groups which received a control diet (sham N=7; DOCA-salt N=10) and two groups which received a BH4 supplemental diet of 5 mg BH4/day (Research Diets Inc, New Brunswick, N.J.; sham+BH4 N=8; DOCA-salt+BH4 N=8). The supplemental diet began on day 11 after surgery, and continued until day 18, when the mice were analyzed and sacrificed.
Mitral pulse wave Doppler flow and tissue Doppler imaging (TDI) were performed using the Vevo 770 high-resolution in vivo imaging system (Visual Sonics, Toronto, Canada) (Reference 10). […] The images for each mouse were recorded for at least 5 s (30-40 cardiac cycles) from which three to five representative cycles with the highest quality imaging were selected. […] Mitral inflow velocities, peak early (E) and late (A) were measured by conventional pulsed-wave Doppler. […]

[5] = fibers from DOCA-salt + BH4 mice
[6] = DOCA-salt mice with BH4 treatment

`C[C@H](O)[C@H](O)[C@H]1CNc2nc(N)[nH]c(=O)c2N1` [BH4, tetrahydrobiopterin] was tested. Which “Cardiac MyBP-C glutathionylation” value [1] did it give?
The value was “decreased”.

And the “Maximum ATPase” value [2, 5]?
Its value is 296.0 ± 4.7†‡^ pmol * s−1 mg−1.

And the “Maximum Tension” value [2, 5]?
The value was 33.04 ± 0.25†‡^ mN/mm^2.

What about the “pCa50 for Tension” value [2, 5] of the same compound?
The value was 5.766 ± 0.005^.

What about the “Tension Cost ΔATPase/ΔTension” value ([2]; fibers from sham + BH4 mice) of the same compound?
The value was 7.9 ± 0.3.

What about the “Maximum ATPase” value ([2]; fibers from sham + BH4 mice) of the same compound?
Its value is 256.0 ± 1.7 pmol/s/mg.

And the “Maximum Tension” value ([2]; fibers from sham + BH4 mice)?
The value was 30.43 ± 0.19 mN/mm^2.

What about the “pCa50 for Tension” value ([2]; fibers from sham + BH4 mice) of the same compound?
Its value is 5.753 ± 0.004.

And the “Phosphorylation of MyBP-C, TnT3, cTnT4, MLC2 and titin (Pro-Q)” value [3, 6]?
Its value is “decrease”.

What about the “cTnI phosphorylation (Pro-Q)” value [3, 6] of the same compound?
The value was “no change”.

What about the “Phosphorylation of cTnI at Ser23/24” value ([3]; DOCA-salt or sham mice) of the same compound?
The value was “not significantly changed”.

What about the “Phosphorylation of MyBP-C at Ser282” value ([3]; myofilaments from DOCA-salt mice) of the same compound?
The value was “further reduced”.

And the “Phosphorylation of MyBP-C at Ser282” value ([3]; sham myofilaments)?
The value was “did not significantly alter”.

What about the Diastolic dysfunction ([4]; DOCA-salt mice after BH4 treatment) of the same compound?
Its Diastolic dysfunction is “reversed”.

What about the “Effect on LV ejection fraction or fractional shortening” value ([4]; seven days of BH4 administration in sham and DOCA-salt mice) of the same compound?
Its value is “did not affect”.
